We go through two molecules from US11746100B2 (GLOBAL BLOOD THERAPEUTICS, INC., priority 2020, dated 2023).

Protein sequences, listed by entry. Tags and fused reporters are not part of them.
UniProt Q9NP59, whole entry: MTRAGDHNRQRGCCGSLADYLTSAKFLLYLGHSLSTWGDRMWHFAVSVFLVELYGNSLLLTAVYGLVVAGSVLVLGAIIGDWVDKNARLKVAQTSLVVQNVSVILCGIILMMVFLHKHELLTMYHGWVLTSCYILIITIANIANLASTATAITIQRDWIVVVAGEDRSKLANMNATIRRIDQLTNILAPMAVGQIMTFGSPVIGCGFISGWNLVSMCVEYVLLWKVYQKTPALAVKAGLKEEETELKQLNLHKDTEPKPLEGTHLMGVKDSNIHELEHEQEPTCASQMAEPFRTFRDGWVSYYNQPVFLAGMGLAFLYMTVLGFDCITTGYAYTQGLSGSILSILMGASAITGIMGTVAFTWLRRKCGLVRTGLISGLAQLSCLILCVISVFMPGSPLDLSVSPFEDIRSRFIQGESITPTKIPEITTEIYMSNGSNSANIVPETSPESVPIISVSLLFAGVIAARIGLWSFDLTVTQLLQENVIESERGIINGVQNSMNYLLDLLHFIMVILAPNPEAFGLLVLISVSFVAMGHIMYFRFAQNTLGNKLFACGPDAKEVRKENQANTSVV

Structures were worked out from names or drawings and are uncertain.

The assay deals with human ferroportin (Homo sapiens, UniProt Q9NP59). As to the kind of experiment: Biological in-vitro ferroportin internalization assay (luciferase reporter). It counts as cell-based. As to conditions: average pEC50, stably-transfected CHO cell line expressing human ferroportin tagged to a luciferase reporter, 6 h incubation with test compound. Here is the method: The protocol for this assay is generally as described in WO2018/128828, incorporated herein by reference in its entirety. Functional internalization of ferroportin protein was measured using a stably-transfected CHO cell line expressing the human ferroportin tagged to a luciferase reporter. Cells were plated for 24 h in the presence of ferric ammonium citrate (FAC). Ferroportin protein expression was induced with doxycycline for 24 h. The next day, the compounds were added. Test compounds were dissolved in DMSO. Cells were incubated with the test compounds for 6 h, and subsequently luciferase activity was measured using the Nano-Glo Luciferase Assay System and Glomax (Promega, Madison, Wis.). The average pEC50 was determined for the test compounds.
In general terms: In a reporter assay the amount or activity of a reporter protein is the signal.

Broadly, the pEC50 is −log10 of the EC50, conventionally taken in molar units. Read a low pEC50 as a large EC50. For the setting “tested form: formate”, `CN(CC(=O)NC(C)(C)C)c1nc(-c2ncccn2)nc2c1CCC2` returned a pEC50 of 5.4.
In turn, `COc1ccc(NC(=O)CN(C)c2nc(-c3cc4cn[nH]c4cn3)nc3c2CCC3)nc1` displayed a pEC50 of 7.5.
